We go through 17 molecules from PubChem BioAssay AID2685 (National Center for Advancing Translational Sciences (NCATS), 2010).

The experiment can be described thus: qHTS Assay for Lipid Storage Modulators in Drosophila S3 Cells.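 For cell number change: cells counted by Cell Tracker Red CMTPX staining in the red channel.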 To be noted: BODIPY lipid droplet fluorescence, 18-24 h; for cell number change: measured here: cell count max response, cells fed with added oleic acid. In outline:
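Drosophila S3 cells loaded with oleic acid (400 uM, as added) and compounds at several concentrations; lipid droplets imaged by 488-nm laser-scanning cytometry, 500–530 nm intensity and object ratio to cell channel. Percent activity normalized to 20 uM Triacsin C.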
On the technique in general: In qHTS, concentration-response curves come from the screen itself.

Setting [1] is: measured here: cell number channel AC50, cells fed with added oleic acid.
[2] abbreviates: measured here: lipid fluorescence (Fed channel) AC50, cells fed with added oleic acid.

The other results are listed elsewhere or left out. These are further read-outs of the screen, such as a control signal, another cell line or another target. No call is given for them. Compounds called inactive in the main read-out are mostly missing here. Words in brackets tell the shape of the fitted curve; partial curves, single points and poor fits give uncertain potencies.

For `COCCn1c(-c2ccc(OC)cc2)cnc1SCC(=O)Nc1ccc(OC)cc1OC`, the cell number change was 4.98%.
Turning to `CN(C1CCCCC1)S(=O)(=O)c1ccc(NC(=O)Cn2nc(-c3ccc(F)cc3)ccc2=O)cc1`, the cell number change came out at 34.3%. The AC50 (in general, the midpoint of the concentration-response curve, whichever way the signal moves) under setting [1] is 5.17 µM [rising, single point]. Further, the AC50 under setting [2] was 18.4 µM [rising, partial curve].
For `Cc1ccnc(NC(=O)c2ccc3c(c2)C(=O)N(CCC(C)C)C3=O)c1`, the cell number change was -24%.
On the same count and under the same terms, in the case of `COc1ccccc1N1CCN(c2nc(-c3ccccc3)cc(C(F)(F)F)n2)CC1` it was -3.12%.
As for `O=C(COC(=O)CCc1c[nH]c2ccccc12)Nc1ccccc1C(F)(F)F`, the cell number change was -17.5%. Also, the AC50 under setting [2] was 6.51 µM [rising, single point].
Turning to `COc1ccc(-n2c(C)nc3cc(C(=O)O)ccc32)cc1`, the cell number change was 10.3%. The AC50 under setting [2] was 23.1 µM [falling, partial curve].
With `O=C(NC(=S)Nc1ccc(F)cc1)c1ccc2c(c1)OCCO2`, the cell number change was determined as 0.923%. Besides, the AC50 under setting [2] was 0.731 µM [falling, full curve].
Turning to `Cc1ccc(Nc2nc(C(=O)N3CCC(C(=O)N4CCN(C)CC4)CC3)cs2)cc1`, the cell number change was 73%. Also, the AC50 under setting [1] is 18.4 µM [rising, single point]. Also, the half-maximal activity concentration (AC50) under setting [2] is 1.3 µM [rising, single point].
Regarding `CN(c1ccc(F)cc1)S(=O)(=O)c1ccc(Cl)c(C(=O)OCC(=O)NCc2ccco2)c1`, the cell number change came to 34.9%. The AC50 under setting [1] was 0.116 µM [rising, full curve]. The AC50 under setting [2] was 0.82 µM [rising, full curve].
In the case of `Cc1cc(-c2cn3ccccc3n2)c(C)n1-c1ccccc1`, the cell number change is -131%.
For `O=C1CCCN1c1ccc(N2CCCC2=O)cc1`, the cell number change is 21.1%.
On to `COc1cc(/C=N/NC(=O)c2cccs2)ccc1OCc1ccccc1`, for which the cell number change was -47.1%. For the same molecule, the AC50 under setting [1] was 16.4 µM [falling, partial curve, poor fit]. Moreover, the AC50 under setting [2] is 0.411 µM [falling, partial curve].
Turning to `CC(C)C(C)(C#N)NC(=O)CSc1nnc(-c2ccncc2)n1Cc1ccccc1` (centres undefined), the cell number change came to 57.2%. The AC50 under setting [1] was 29.1 µM [rising, single point]. Also, the half-maximal activity concentration (AC50) under setting [2] was 16.4 µM [rising, partial curve].
`CC(=O)N1CSCC1C(=O)N1CCN(c2ccc(N3CCOCC3)nn2)CC1` (centres undefined): the cell number change was 5.07%. For the same molecule, under setting [2], the AC50 was 0.00461 µM [rising, full curve, poor fit].
Take `CCOC(=O)C1CCCN(C(=O)c2cc(-c3ccc(F)cc3)nc3ccccc23)C1` (centres undefined): the cell number change is 41.4%. Further, under setting [1], the AC50 is 29.1 µM [rising, single point].
`CC(C)(C)n1nnnc1C(c1cccs1)N1CCN(Cc2ccccc2)CC1` (centres undefined): the cell number change was determined as 9.22%.
In the case of `Cc1cc(C)n(-c2nc3c(c(=O)[nH]c(=O)n3C)n2Cc2ccccc2)n1`, the cell number change is 16.3%. For the same molecule, the AC50 under setting [1] was 0.231 µM [rising, full curve, poor fit]. Moreover, the concentration at half-maximal activity (AC50) under setting [2] is 0.326 µM [rising, full curve].
